Z-score data for 105 compounds are collected here from PubChem BioAssay AID463116 (University of Pittsburgh Molecular Library Screening Center, 2010).

The other results are listed elsewhere or left out. Further columns of the screen follow, without active or inactive calls. The list favours compounds with an active or inconclusive main result.

This assay is described as follows: dynein cargo transport inhibitors, GR-EGFP translocation, confirmation, imaging, high-content imaging, GR-EGFP cells (AID 463116). As to conditions: 3617.4 GR-EGFP nuclear translocation imaging, dexamethasone-induced; measured here: cell count per field; at 20 µM.
As to `CCC(C)(C)c1ccc(OCCCC[n+]2cccc(C)c2C)c(C(C)(C)CC)c1`, the z-score is -3.88.

In turn, `CCOC(=O)C(=Cc1c[nH]c2ccc(S(=O)(=O)N(C)C)cc12)C(=O)OCC` gave a z-score of 0.236.

`COc1ccc(-n2nc(C(=O)c3cccs3)cc(-c3nc4ccccc4[nH]3)c2=N)cc1` displayed a z-score of 0.699.

Compound `CCn1c(SCC(=O)N2CCOCC2)nc2oc3c(Cl)cc(Cl)cc3c(=O)c2c1=O` returned a z-score of 0.251.

With `CC(=O)NC(CSC(CC(=O)c1ccco1)c1ccc(C)cc1)C(=O)O` (stereo not given), the z-score was found to be 1.43.

Take `CC1(C)CC(=O)C2=C(C1)Oc1nc3ccccc3cc1C2C(C#N)C#N` (stereo not given): the z-score is 0.411.

In turn, `CCCCNC1C(CC)C(CCC)C(C#N)(C#N)C1(C#N)C#N` (stereo not given) came in with a z-score of 0.227.

For `CCOC(=O)C1=C(Cc2ccc(OC)cc2)C(=O)c2ccccc2C1=O`, the z-score amounted to 0.475.

As for `CC(=O)Oc1ccc(OC(C)=O)c(SCCCCCCl)c1`, the z-score is -0.248.

As for `N#CC1=C(N)N(c2ccccc2)C(c2cccc([N+](=O)[O-])c2)C1(C#N)C#N` (stereo not given), the z-score came out at 0.259.

Compound `O=[N+]([O-])/C=C/c1cn(Cc2ccc(Cl)cc2)c2ccccc12` displayed a z-score of 0.0425.

For `COc1ccc(-c2csc3ncnc(Cl)c23)cc1`, the z-score stood at 0.176.

In turn, `CSc1nnc(C)c(/C=C/Nc2ccc(C)cc2)n1` returned a z-score of 0.586.

`CC1CCN(C(=O)c2ccc3c(Cl)c4c(nc3c2)CCCC4)CC1` returned a z-score of 0.435.

`CN(C)c1ccc(/C=C2\N=C(c3ccc(Cl)c([N+](=O)[O-])c3)NC2=O)cc1` registered a z-score of -0.0211.

`Cc1nc([N+](=O)[O-])c(Br)n1Cc1ccccc1` gave a z-score of 0.21.

Compound `Cc1ccc(-c2csc3ncnc(Sc4nnc(CN5CCCCCC5=O)o4)c23)cc1` registered a z-score of -0.583.

In turn, `COc1cc2c(cc1OC)C(SC)=NC1(CCCC1)C2` showed a z-score of 0.149.

Consider `COc1ccccc1-c1nnc(Sc2nc([N+](=O)[O-])nn2C)o1`, for which the z-score amounted to 0.832.

With `CC(=O)OCCN(C)c1cc(SC(C)C)c2nonc2c1[N+](=O)[O-]`, the z-score was -0.0884.

Compound `CC(=O)OCCCNc1cc(SCc2ccco2)c2nonc2c1[N+](=O)[O-]` yielded a z-score of 0.452.

As to `CCCNC(=O)Cn1c(=O)/c(=C\c2ccc(-c3ccc([N+](=O)[O-])cc3)o2)s/c1=C\C(=O)C(C)(C)C`, the z-score was -0.0798.

For the compound `Cc1ccc(NC(=O)c2cc(N3C(=O)C=CC3=O)ccc2N2CCOCC2)cc1`, the z-score is -2.44.

As to `CN1CCN(C2=C(Cl)C(=O)C(c3cnc(N4CCCCC4)s3)=C(Cl)C2=O)CC1`, the z-score was -1.21.

Regarding `CCN(CC)C(=O)c1cc([N+](=O)[O-])cc2c1-c1ccc([N+](=O)[O-])cc1C2=C(C#N)C#N`, the z-score came to 0.185.

On to `CCn1c(C)c(CS(=O)(=O)c2ccccc2)[nH]c1=O`, for which the z-score was determined as 0.64.

Regarding `O=C(O)CC1CCC(=C(Cl)Cl)C1` (stereo not given), the z-score turned out to be 0.519.

As for `O=C(O)c1ccc(C=C(c2nc3ccccc3s2)c2nc3ccccc3s2)cc1`, the z-score worked out at 0.387.

`N#C/C(=C/c1ccc(N2CCCCC2)o1)c1cccc(F)c1` showed a z-score of 0.404.

`COc1ccc2nc(N3CCCC3)c(C#N)cc2c1` returned a z-score of 0.499.

On to `COc1ccc(N(C(=O)CCl)C(C(=O)NCCc2ccccc2)c2cccs2)cc1` (stereo not given), for which the z-score amounted to 0.0122.

Consider `CCCn1nc(-c2ccccc2)c2nc3ccccc3nc21`, for which the z-score was 0.53.

`COc1ccc(-n2ncc(Cl)c(Cl)c2=O)cc1` gave a z-score of -0.22.

`CCOC(=O)c1c(NC(=S)N2CCOCC2)sc2c1CCN(C(=O)OCC)C2` showed a z-score of 0.77.

Compound `Cc1ccc(C(=O)/C=C\C(=O)c2ccc(C)cc2)cc1` showed a z-score of 0.618.

On to `N#Cc1c(Cl)c(Cl)c2nnc(-c3ccc(Br)cc3)n2c1Cl`, for which the z-score was 0.28.

In the case of `CC(=O)Nc1cccc(C(=O)/C=C/c2cccs2)c1`, the z-score came to 0.833.

For the compound `Cc1ccc(-c2nnc(Sc3nc4ccccc4o3)c3ccccc23)cc1`, the z-score is 0.00155.

`Clc1ccc(N=c2ssnc2Cl)nc1` yielded a z-score of 0.187.

`O=C(NCc1cccnc1)/C(=C\c1ccc(-c2ccc(Cl)c(Cl)c2)o1)S(=O)(=O)c1ccccc1` showed a z-score of 0.497.

In the case of `COc1cc(/C=C/C(=O)c2ccc(F)cc2)cc(OC)c1OC`, the z-score stood at 0.209.

Compound `O=C(/C=C/c1ccc(O)c(O)c1)c1ccccc1O` yielded a z-score of -0.491.

Compound `O=C(c1ccc(S(=O)(=O)Cc2cc(F)ccc2F)c([N+](=O)[O-])c1)N1CCCC1` came in with a z-score of 0.17.

In turn, `COc1ccc(N(C(=O)CCl)C(C(=O)NC2CCCCC2)c2cccnc2)cc1` (stereo not given) came in with a z-score of 0.661.

Turning to `COc1ccc(CS(=O)(=O)/C(Cl)=C(/Cl)C(=O)Nc2ccc(OC)nc2)cc1`, the z-score is -0.0772.

As to `Cc1ccc2nc(/C(C#N)=C\c3ccc(N4CCOCC4)o3)[nH]c2c1`, the z-score is 0.616.

The compound `CC(C)(C)c1cc(CN(CCO)CCO)cc(C(C)(C)C)c1O` showed a z-score of -1.07.

In turn, `COC(=O)c1cc([N+](=O)[O-])c(-n2ccnc2)c([N+](=O)[O-])c1` had a z-score of 0.452.

`O=C(/C=C/Sc1ccccc1)c1ccccc1` returned a z-score of 0.652.

Compound `CCOC(=O)C(=Cc1ccc(-n2cncn2)cc1)C(=O)OCC` gave a z-score of -0.721.

`COc1ccc(N=C2S/C(=C\c3ccc(N4CCOCC4)o3)C(=O)N2CCc2c[nH]c3ccccc23)cc1` gave a z-score of 0.568.

Turning to `O=c1c2ccccc2sn1-c1ccccc1`, the z-score is 0.217.

On to `COc1ccc(CC(=O)n2[nH]c(=O)cc(C)c2=O)cc1OC`, for which the z-score was -0.852.

Regarding `CC(C)(C)OC(=O)NCCc1nnc(S(=O)(=O)Cc2ccc(Cl)cc2Cl)o1`, the z-score came out at 1.32.

In the case of `Cc1ccc(-c2nn(-c3ccccc3)cc2CO)o1`, the z-score is 0.154.

`CC(C)Cc1nc2oc3c(Cl)ncnc3c2c2c1CCCC2`: the z-score is -0.85.

`CCOC(=O)c1c(NC(=O)/C=C/C(=O)O)sc(C)c1-c1ccc(Cl)cc1` had a z-score of 0.645.

In turn, `COc1ccccc1-c1cc(C(F)(F)F)nc(S(C)(=O)=O)n1` returned a z-score of -1.2.

Regarding `CS(=O)(=O)c1nc(-c2ccc(Br)cc2)cc(-c2ccccc2)c1C#N`, the z-score was -0.477.

Compound `O=C(CN(c1cccc(C(F)(F)F)c1)S(=O)(=O)c1ccc(Cl)c([N+](=O)[O-])c1)NCc1ccccc1Cl` had a z-score of 0.245.

As for `Nc1nc(Sc2c([N+](=O)[O-])cc(C(F)(F)F)cc2[N+](=O)[O-])n[nH]1`, the z-score came to 0.335.

In the case of `Cc1cccc(C2=NC(C(F)(F)F)(C(F)(F)F)c3c(n(-c4ccc(F)cc4)c(=O)[nH]c3=O)N2)c1`, the z-score was -5.54.

The compound `CCc1cc(OCCCCNCc2ccccc2)ccc1Cl` gave a z-score of -3.73.

In the case of `CCOC(=O)C(=Cc1cc(=O)c(OC)co1)C(=O)OCC`, the z-score was determined as 0.82.

`O=C1CSC(=S)N1Cc1cccnc1` had a z-score of 0.231.

Take `CN=c1scc(-c2cccs2)n1/N=C/c1ccc(O)c(O)c1O`: the z-score amounted to 0.655.

In turn, `COc1ccccc1C(=O)/C=C/c1ccc(N2CCCCC2)c([N+](=O)[O-])c1` registered a z-score of 0.00616.

Compound `COc1ccccc1NS(=O)(=O)c1cc([N+](=O)[O-])ccc1N/N=C/c1c(C)[nH]c2ccccc12` registered a z-score of -0.0945.

In turn, `COC(=O)C1=C(C)N(Cc2ccco2)C(=O)/C1=C\c1ccc([N+](=O)[O-])cc1` registered a z-score of -0.62.

On to `CC(C)(C)C(=O)/C(=C/c1ccncc1)n1cncn1`, for which the z-score was -0.544.

In turn, `Cc1ccc(-c2cc(C(F)F)nc(S(C)(=O)=O)n2)cc1` gave a z-score of 0.664.

In turn, `O=C1/C(=C/c2ccc(N3CCOCC3)o2)SC(=Nc2ccccc2)N1CCc1c[nH]c2ccccc12` displayed a z-score of 0.256.

In turn, `CCN(CC)CCCNC(=O)c1ccc2c(Cl)c3c(nc2c1)CCCC3` came in with a z-score of 0.642.

In the case of `O=C(Oc1ccccc1C(=O)Nc1ccccc1)c1ccc(Br)c([N+](=O)[O-])c1`, the z-score was -0.158.

The compound `OC(CNCCc1ccc(C(F)(F)F)cc1)COc1ccc2ccccc2c1` (stereo not given) had a z-score of -5.09.

With `O=C1ON=C(c2ccccc2)/C1=C/c1ccc(-c2ccccc2[N+](=O)[O-])o1`, the z-score turned out to be 0.512.

The compound `CCOC(=O)c1c(C)oc2c1c(C(c1ccncc1)N1CCOCC1)c(O)c1ccccc12` (stereo not given) yielded a z-score of 1.1.

The compound `O=C(/C=C/c1ccncc1)c1ccc2c(c1)OCCO2` gave a z-score of 0.201.

Compound `O=C(CCl)N1N=C(c2cccs2)CC1c1ccco1` (stereo not given) gave a z-score of 0.101.

In turn, `CCOc1ccc2noc3c2c1C(=O)c1ccccc1-3` returned a z-score of 0.93.

`CC1(C)CC(N=c2cc(-c3ccccc3)oc3ccc(Cl)cc23)CC(C)(C)N1` returned a z-score of -5.6.

For `CN1CCN(C2=C(Cl)C(=O)N(c3ccc(Cl)c(Cl)c3)C2=O)CC1`, the z-score is -0.192.

For `O=c1c(Cl)c(Cl)cnn1-c1ccccc1`, the z-score stood at 0.133.

Compound `C=C1C(=O)[C@@]23[C@H](O)C[C@@H]4C(C)(C)CC[C@H](O)[C@@]4(C)[C@@H]2CC[C@@H]1[C@H]3O` displayed a z-score of 0.0872.

`Cn1c(=O)c(NCCc2ccccc2)c2c3c(cccc31)C(=O)c1ccccc1-2` gave a z-score of 0.228.

Compound `O=c1c(Cl)c(Cl)cnn1Cc1nnc(-c2ccc(Cl)cc2)o1` had a z-score of 0.0228.

In the case of `O=C(CCN1CCN(c2ccccc2F)CC1)c1ccc(Br)cc1`, the z-score is 0.0471.

Take `O=[N+]([O-])c1ccc2c(c1)N([O-])C1(CCCCC1)[N+]2=O`: the z-score came out at 0.611.

`Nc1cccc2c1C(=O)N(C(=O)/C=C/c1cccc(F)c1)C2=O`: the z-score came to 0.318.

`CC1=Nc2ccccc2/C1=C/c1nc(-c2ccc(C)s2)oc1O` came in with a z-score of 0.886.

In the case of `CCOC(=O)c1c(NC(=S)N2CCCCC2)sc2c1CCN(C(=O)OCC)C2`, the z-score was determined as 0.000272.

`CC(C)COc1cc(=O)[nH]c(SCC(C)C)n1` showed a z-score of 0.0278.

In the case of `O=C(c1nnsc1S(=O)c1ccc(Cl)cc1)N1CCOCC1` (stereo not given), the z-score is -0.539.

For `Cc1ccc(-c2csc3nc(C)n(-n4c(C)ccc4C)c(=O)c23)o1`, the z-score is -0.116.

Take `COC(=O)C(=Cc1ccccc1[N+](=O)[O-])C(=O)OC`: the z-score was -0.415.

Regarding `CCCCCCc1cc2cc(-c3nnc(-c4ccccc4O)o3)c(=O)oc2cc1O`, the z-score is -0.147.

In turn, `COCCOC(=O)/C(=C\c1cc(C(C)(C)C)c(O)c(C(C)(C)C)c1)C(C)=O` registered a z-score of -0.584.

`COc1ccc(S(=O)(=O)Nc2ccc(O)c3ccccc23)cc1` showed a z-score of -0.284.

In turn, `CCCS(=O)(=O)c1nnnn1-c1cccc(OC)c1` showed a z-score of 0.391.

The compound `CN1CCN(S(=O)(=O)c2ccc(Sc3nnnn3-c3ccccc3)c([N+](=O)[O-])c2)CC1` came in with a z-score of -0.772.

Compound `Nc1c(C(=O)C2CC2)sc2nc(-c3cccs3)cc(C(F)(F)F)c12` had a z-score of 0.00567.

As to `O=C(NCc1cccnc1)/C(=C/c1ccc(-c2ccc(Cl)cc2)o1)S(=O)(=O)c1ccccc1`, the z-score is -0.459.

As to `COc1ccc(C(=O)C(CN2CCOCC2)c2ccccc2)cc1F` (stereo not given), the z-score stood at 0.21.

For `CCCC(=O)OCCNc1cc(SCc2ccco2)c2nonc2c1[N+](=O)[O-]`, the z-score is -0.0753.

`CCOc1cc(CNCCCN2CCOCC2)cc(Br)c1OCc1ccccc1Cl` showed a z-score of -5.64.
